PubChem BioAssay AID1259254 – NCATS, 2017
This is one part, drawn at random, of about 59,000 reagents. About 1,550 of them (2.6%) count as active. 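G2 share is only a proxy for re-replication; each gene was hit by three separate siRNAs, and active genes were retested.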 A number with no mark means an inactive call. Further read-outs or replicates are left out here. Not given: the amount of reagent.

- Screen: 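Gene knock-downs that lead to re-replication, shown by excess G2 DNA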 (primary screen)
- Cell system: human HCT116 colorectal cancer cells
- Reagents: single siRNA against human genes
- Duration: 3 days
- Detection: 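Imaged Hoechst DNA stain sorts each cell into a cycle phase by DNA amount; per plate, G2 fraction set to 0% for non-targeting and 100% for GMNN siRNA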
- Reading the numbers: G2 robust z-score: higher = more G2 cells, more excess DNA replication
- Call rule: 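Active siRNAs have a G2 robust z of 5 or more median absolute deviations over the median, which in these data means about 38% or higher of GMNN control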

KLHL41 (kelch like family member 41) [SID160728172] | G2 robust z-score = -0.548
KLHL41 (kelch like family member 41) [SID160728173] | G2 robust z-score = -0.601
KLHL41 (kelch like family member 41) [SID160728175] | G2 robust z-score = 0.0235
NCOA4P4 (nuclear receptor coactivator 4 pseudogene 4) [SID160768559] | G2 robust z-score = -0.0947
NCOA4P4 (nuclear receptor coactivator 4 pseudogene 4) [SID160768560] | G2 robust z-score = 0.423
NCOA4P4 (nuclear receptor coactivator 4 pseudogene 4) [SID160768561] | G2 robust z-score = -0.687

2 successive records already listed, quoted:
NCOA4P4 (nuclear receptor coactivator 4 pseudogene 4) [SID160768559] | G2 robust z-score = -0.0947
NCOA4P4 (nuclear receptor coactivator 4 pseudogene 4) [SID160768560] | G2 robust z-score = 0.423

More records follow.
DOCK4 (dedicator of cytokinesis 4) [SID160722932] | G2 robust z-score = -0.0106
DOCK4 (dedicator of cytokinesis 4) [SID160722933] | G2 robust z-score = -0.376
DOCK4 (dedicator of cytokinesis 4) [SID160722934] | G2 robust z-score = -0.599
DYNC1LI2 (dynein cytoplasmic 1 light intermediate chain 2) [SID160755504] | G2 robust z-score = 0.66
DYNC1LI2 (dynein cytoplasmic 1 light intermediate chain 2) [SID160755516] | G2 robust z-score = 0.693
DYNC1LI2 (dynein cytoplasmic 1 light intermediate chain 2) [SID160755526] | G2 robust z-score = 3.43
